Experimental data taken from article PMC2684557.
These are yes or no findings as the source states them, for the method shown. Binding seen in cells or lysates may run through a third protein. Some results given as binding are weak or reduced against the parent protein; the word gives no strength.

Amino acid sequences for entries named in this document (tags omitted). Residues count along the entry.
UniProt O43181, residues 43-175: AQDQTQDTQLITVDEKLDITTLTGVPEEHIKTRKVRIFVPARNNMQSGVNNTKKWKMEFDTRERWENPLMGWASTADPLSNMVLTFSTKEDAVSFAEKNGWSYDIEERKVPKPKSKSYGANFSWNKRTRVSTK
UniProt P31040, residues 43-664: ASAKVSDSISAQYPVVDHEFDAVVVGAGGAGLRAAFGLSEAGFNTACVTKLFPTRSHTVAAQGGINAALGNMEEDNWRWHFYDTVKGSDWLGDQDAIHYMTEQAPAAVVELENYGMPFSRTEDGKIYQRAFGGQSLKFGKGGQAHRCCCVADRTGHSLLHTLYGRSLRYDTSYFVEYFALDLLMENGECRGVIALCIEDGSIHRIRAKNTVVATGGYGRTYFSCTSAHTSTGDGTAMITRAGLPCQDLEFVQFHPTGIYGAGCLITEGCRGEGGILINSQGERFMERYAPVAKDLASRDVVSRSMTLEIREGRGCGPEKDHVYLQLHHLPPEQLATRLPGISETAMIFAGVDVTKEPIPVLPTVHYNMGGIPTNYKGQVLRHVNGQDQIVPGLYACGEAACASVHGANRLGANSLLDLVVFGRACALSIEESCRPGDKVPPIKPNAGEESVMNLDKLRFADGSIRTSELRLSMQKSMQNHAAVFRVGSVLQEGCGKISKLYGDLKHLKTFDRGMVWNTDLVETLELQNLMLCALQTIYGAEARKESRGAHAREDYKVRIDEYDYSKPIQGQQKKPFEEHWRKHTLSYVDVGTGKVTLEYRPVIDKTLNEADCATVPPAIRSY
UniProt P99999: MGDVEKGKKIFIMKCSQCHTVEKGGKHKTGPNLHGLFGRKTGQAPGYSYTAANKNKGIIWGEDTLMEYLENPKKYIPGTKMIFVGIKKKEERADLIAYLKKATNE

molecular target: T1, methionine sulfoxide reductase A (MsrA), human lens epithelial cell mitochondria (human (endogenous in HLE B3)) (UniProt Q9UJ68); experiment: co-IP; HLE B3 mitochondrial protein (500 ug) incubated overnight at 4 C with MsrA antibody conjugated to NHS activated beads; washed 4X with PBS 1 mM n-dodecyl-beta-D-maltopyranoside; eluted with 0.2 M glycine pH 2.5; blots probed with antibodies to subunits of complexes I-V or to cyt c
T1 sequence: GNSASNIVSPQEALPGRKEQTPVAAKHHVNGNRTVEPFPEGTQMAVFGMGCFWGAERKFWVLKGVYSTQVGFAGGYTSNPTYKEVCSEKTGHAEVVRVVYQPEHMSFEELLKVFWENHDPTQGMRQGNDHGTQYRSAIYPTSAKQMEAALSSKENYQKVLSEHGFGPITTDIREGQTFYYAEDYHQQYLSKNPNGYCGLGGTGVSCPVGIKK

Substance	binding
NDUFS4 (18 kDa), subunit of mitochondrial complex I, human (from UniProt O43181 43-175)	binds
complex II 70 kDa subunit, human (from UniProt P31040 43-664)	binds
cytochrome c, human lens epithelial cell mitochondria (from UniProt P99999 1-105)	binds
complex V ATP synthase subunit beta (56 kDa), human (from UniProt P06576 48-529)	binds
